Experimental data taken from patent US20100021918A1, “METHOD FOR ASSAYING ACTION OF ANTITUMOR AGENT USING SPLICING DEFECTS AS INDEX” (Eisai R&D Management Co., Ltd., priority 2007, published 2010).
Further values from the same series stand in other lists.

Tested on: human colon carcinoma cell strain WiDr
Test: Microarray analysis (2), reviewed conditions, intron expression, Table 3
Type: cell-based
Method: WiDr cells were first suspended in RPMI1640 medium (containing 10% FBS, penicillin, and streptomycin) and seeded in a 10 cm dish (2×10^6 cells/dish). After an overnight culture in an incubator with 5% carbon dioxide gas at 37° C., the medium was changed with medium containing 14 nM of (8E,12E,14E)-7-((4-cycloheptylpiperazin-1-yl)carbonyl)oxy-3,6,16,21-tetrahydroxy-6,10,12,16,20-pentamethyl-18,19-epoxytricosa-8,12,14-trien-11-olide or containing vehicle alone. After cultured for additional six hours, TRI reagent (SIGMA) were added to the cells and the cells were harvested. RNA was purified in accordance with the protocol of TRI reagent, followed by further purification with RNeasy (QIAGEN). Absorbance at 260 nm was measured to quantify an amount of RNA. This experiment was repeated three times and RNA samples (n=3) were prepared.
Ribosomal RNA was removed from 1 μg of each total RNA of control cells (n=3) and cells with the treatment (n=3) by using RiboMinus Human/Mouse Transcriptome Isolation Kit (Invitrogen). Single stranded cDNA synthesis, double stranded cDNA synthesis, cRNA synthesis, second single stranded cDNA synthesis, cDNA fragmentation, and cDNA labeling in order were carried out for the total RNA from which ribosomal RNA was removed, by using GeneChip Whole Transcript Sense Target Labeling and Control Reagents (Affymetrix) to make a cDNA probe. The cDNA probe was used for hybridization with Human Exon 1.0 ST Array (Affymetrix). The array was washed and stained, and luminescence intensity was measured by a scanner.
Analysis conditions were reviewed in the data used in Example 3. Genes containing increased introns upon treatment with (8E,12E,14E)-7-((4-cycloheptylpiperazin-1-yl)carbonyl)oxy-3,6,16,21-tetrahydroxy-6,10,12,16,20-pentamethyl-18,19-epoxytricosa-8,12,14-trien-11-olide were identified.
In order to consider the analysis conditions, variations in the data from the samples with identical conditions were studied. […] It turned out that, by analyzing under conditions where the expression level was more than 100 and change in the expression level was more than five times, a probe set with increased expression can be extracted.
Probe sets showing that the normalized change in the level expression of the probe set in the group with the treatment was more than 5 times; the expression level of the probe set and the gene in the group with the treatment were more than 100; and probe set annotation was “extended, full, free”, were picked out. Welch's t-test was conducted with the probe sets extracted for the treated group and the control group to determine a p and q value. A gene containing the probe sets with the q value of less than 5% was determined as a candidate gene with increased expression level of the intron regions (Table 3).
In Table 3, for each gene evaluated, gene name (Gene Name), abbreviated name (Gene Symbol), accession number (Accession), alias name (Synonym), transcription cluster number in Human Exon 1.0 ST Array (Human Exon 1.0 ST Array Transcript Cluster ID), chromosome number (Chromosome), type of strand (Strand), start region (Start), stop region (Stop), and change in expression level (Fold Change) were respectively shown.

Structure (SMILES): CCC(O)C(C)C1OC1CC(C)(O)/C=C/C=C(\C)C1OC(=O)CC(O)CCC(C)(O)C(OC(=O)N2CCN(C3CCCCCC3)CC2)/C=C/C1C (stereo not shown) [E7107, (8E,12E,14E)-7-((4-cycloheptylpiperazin-1-yl)carbonyl)oxy-3,6,16,21-tetrahydroxy-6,10,12,16,20-pentamethyl-18,19-epoxytricosa-8,12,14-trien-11-olide]
- Fold Change (Gene Symbol STOML2 // FANCG, Transcript Cluster ID 3204534): 5.74
- Fold Change (Gene Symbol SUZ12, Transcript Cluster ID 3717395): 5.55
- Fold Change (Gene Symbol SYF2 // MXI1 // C1orf63, Transcript Cluster ID 2402068): 5.47
- Fold Change (Gene Symbol TLK1, Transcript Cluster ID 2586603): 5.55
- Fold Change (Gene Symbol TM2D3, Transcript Cluster ID 3642358): 5.62
- Fold Change (Gene Symbol TMEM11, Transcript Cluster ID 3749767): 5.77
- Fold Change (Gene Symbol TMEM70, Transcript Cluster ID 3103494): 5.82
- Fold Change (Gene Symbol TMEM115, Transcript Cluster ID 2675304): 5.76
- Fold Change (Gene Symbol TNFRSF21, Transcript Cluster ID 2956052): 5.80
- Fold Change (Gene Symbol TOE1, Transcript Cluster ID 2334319): 5.67
- Fold Change (Gene Symbol TRAF2, Transcript Cluster ID 3194896): 5.56
- Fold Change (Gene Symbol TRAF4, Transcript Cluster ID 3715839): 5.71
- Fold Change (Gene Symbol TRIM28, Transcript Cluster ID 3844238): 5.84
- Fold Change (Gene Symbol TXLNA // DCDC2B, Transcript Cluster ID 2328713): 5.52
- Fold Change (Gene Symbol UBE2D3, Transcript Cluster ID 2779992): 5.61
- Fold Change (Gene Symbol UBE3C, Transcript Cluster ID 3033924): 5.68
- Fold Change (Gene Symbol UBXD8, Transcript Cluster ID 2842570): 5.48
- Fold Change (Gene Symbol USP3, Transcript Cluster ID 3597603): 5.54
- Fold Change (Gene Symbol USP6NL, Transcript Cluster ID 3277468): 5.65
- Fold Change (Gene Symbol UTP14A, Transcript Cluster ID 3990566): 5.93
- Fold Change (Gene Symbol UTP18, Transcript Cluster ID 3726992): 5.49
- Fold Change (Gene Symbol VCP // FANCG, Transcript Cluster ID 3204404): 5.58
- Fold Change (Gene Symbol WDR26, Transcript Cluster ID 2458082): 5.74
- Fold Change (Gene Symbol XRN2, Transcript Cluster ID 3879467): 5.69
- Fold Change (Gene Symbol YY1, Transcript Cluster ID 3551677): 5.89
- Fold Change (Gene Symbol ZBTB9 // SYNGAP1, Transcript Cluster ID 2903703): 5.82
- Fold Change (Gene Symbol ZFAND3, Transcript Cluster ID 2905664): 5.93
- Fold Change (Gene Symbol ZNF259, Transcript Cluster ID 3392871): 5.86
- Fold Change (Gene Symbol ZNF593, Transcript Cluster ID 2326311): 5.90
- Fold Change (gene 6-Mar (membrane-associated ring finger (C3HC4) 6), Transcript Cluster ID 2801608): 5.20
- Fold Change (gene 15-Sep (15 kDa selenoprotein), change in expression level, treated vs control): 13.02
- Fold Change (gene ABCC1, change in expression level, treated vs control): 6.18
- Fold Change (gene ABCF1, Transcript Cluster ID 2901687): 5.42
- Fold Change (gene ABCF3, Transcript Cluster ID 2655511, intron expression, treated vs control): 10.26
- Fold Change (gene ABI2, change in expression level, treated vs control): 6.27
- Fold Change (gene ABLIM3, change in expression level, treated vs control): 6.47
- Fold Change (gene ABT1, intron expression, treated vs control): 6.59
- Fold Change (gene ACSL3, change in expression level, treated vs control): 16.27
- Fold Change (gene ACTG1, Transcript Cluster ID 3773932, intron expression, treated vs control): 9.32
- Fold Change (gene ACTN1, change in expression level, treated vs control): 14.26
- Fold Change (gene ACTN4, change in expression level, treated vs control): 6.06
- Fold Change (gene ADAM10, change in expression level, treated vs control): 6.00
- Fold Change (gene ADIPOR2, change in expression level, treated vs control): 11.05
- Fold Change (gene ADRM1, Transcript Cluster ID 3892607, intron expression, treated vs control): 9.05
- Fold Change (gene AFF4, Transcript Cluster ID 2875555, intron expression, treated vs control): 9.38
- Fold Change (gene AK2, Transcript Cluster ID 2405364, intron expression, treated vs control): 9.45
- Fold Change (gene AKAP1, Transcript Cluster ID 3728097): 5.18
- Fold Change (gene AKAP12, intron expression, treated vs control): 7.27
- Fold Change (gene AKAP13, change in expression level, treated vs control): 13.65
- Fold Change (gene ALKBH2, Transcript Cluster ID 3470689): 5.13
- Fold Change (gene ALKBH3, Transcript Cluster ID 3328214): 5.10
- Fold Change (gene AMOTL2, intron expression, treated vs control): 7.06
- Fold Change (gene ANKRD13D, Transcript Cluster ID 3336857): 5.45
- Fold Change (gene ANKRD17, change in expression level, treated vs control): 6.50
- Fold Change (gene ANXA2, change in expression level, treated vs control): 6.06
- Fold Change (gene AP1G1, intron expression, treated vs control): 6.57
- Fold Change (gene AP2A2, intron expression, treated vs control): 7.01
- Fold Change (gene APTX, Transcript Cluster ID 3203311): 5.03
- Fold Change (gene AQR, change in expression level, treated vs control): 11.56
- Fold Change (gene ARF4, intron expression, treated vs control): 6.96
- Fold Change (gene ARFGEF1, change in expression level, treated vs control): 21.19
- Fold Change (gene ARFIP2 // SLCO6A1, Transcript Cluster ID 3360941, intron expression, treated vs control): 10.24
- Fold Change (gene ARHGAP11A, change in expression level, treated vs control): 12.06
- Fold Change (gene ARHGAP12, Transcript Cluster ID 3283920, intron expression, treated vs control): 8.93
- Fold Change (gene ARHGAP21, intron expression, treated vs control): 6.71
- Fold Change (gene ARHGEF12, change in expression level, treated vs control): 14.21
- Fold Change (gene ARHGEF18, Transcript Cluster ID 3818732): 5.05
- Fold Change (gene ARL6IP2, change in expression level, treated vs control): 13.57
- Fold Change (gene ARL6IP4, change in expression level, treated vs control): 6.48
- Fold Change (gene ARRDC3, intron expression, treated vs control): 6.67
- Fold Change (gene ASNSD1, change in expression level, treated vs control): 6.46
- Fold Change (gene ATAD1, Transcript Cluster ID 3299255): 5.12
- Fold Change (gene ATG3, change in expression level, treated vs control): 6.39
- Fold Change (gene ATG16L1, change in expression level, treated vs control): 6.50
- Fold Change (gene ATP1B1, change in expression level, treated vs control): 11.44
- Fold Change (gene ATP2A2, change in expression level, treated vs control): 6.26
- Fold Change (gene ATP5B, Transcript Cluster ID 3458033): 5.11
- Fold Change (gene ATP5I, intron expression, treated vs control): 7.14
- Fold Change (gene AUP1 // DQX1, Transcript Cluster ID 2560254, intron expression, treated vs control): 9.38
- Fold Change (gene AURKA // STK6P, change in expression level, treated vs control): 6.30
- Fold Change (gene AXIN1, Transcript Cluster ID 3675047): 5.41
- Fold Change (gene BAG1, intron expression, treated vs control): 6.68
- Fold Change (gene BAT4, change in expression level, treated vs control): 6.21
- Fold Change (gene BCAR3, Transcript Cluster ID 2423422): 5.15
- Fold Change (gene BCL10, change in expression level, treated vs control): 12.67
- Fold Change (gene BCLAF1, Transcript Cluster ID 2975680, intron expression, treated vs control): 8.99
- Fold Change (gene BIRC5, Transcript Cluster ID 3736290): 5.29
- Fold Change (gene BMI1, change in expression level, treated vs control): 18.11
- Fold Change (gene BRD1, change in expression level, treated vs control): 6.12
- Fold Change (gene BRD2, intron expression, treated vs control): 7.20
- Fold Change (gene BTBD3, Transcript Cluster ID 3876645): 5.12
- Fold Change (gene BTF3, Transcript Cluster ID 2815331): 5.43
- Fold Change (gene BUB1, Transcript Cluster ID 2570616, intron expression, treated vs control): 9.36
- Fold Change (gene BUD31, Transcript Cluster ID 3014742): 5.13
- Fold Change (gene BXDC1, change in expression level, treated vs control): 14.38
- Fold Change (gene BXDC2, change in expression level, treated vs control): 17.08
- Fold Change (gene C1QDC1, Transcript Cluster ID 3449368): 5.44
- Fold Change (gene C1orf77, Transcript Cluster ID 2359736): 5.18
- Fold Change (gene C1orf174, change in expression level, treated vs control): 6.06
- Fold Change (gene C3orf17, Transcript Cluster ID 2688882, intron expression, treated vs control): 10.73
- Fold Change (gene C4orf23, change in expression level, treated vs control): 11.25
- Fold Change (gene C5orf22, intron expression, treated vs control): 7.26
- Fold Change (gene C6orf94 // LTV1, change in expression level, treated vs control): 13.35
